Measurements reported in PubChem BioAssay AID1224828 (NIAID, 2016)

- Assay: 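Find genes required for NF-kappaB p65 moving into the nucleus after LPS in mouse macrophages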 (primary screen)
- System: mouse RAW264.7 G9 macrophage reporter cells (GFP-p65, Tnf promoter-mCherry)
- Knock-down reagent: siRNA pool against mouse genes, 100 nM
- Timing: 2 days siRNA transfection, then 40 min LPS before fixation
- Challenge: LPS (Salmonella minnesota R595) at 10 ng/ml
- Detection: 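Microscopy ratio of nuclear to perinuclear-ring GFP-p65 signal, scaled to the plate median; gene score is the average of two replicate robust z-scores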
- Direction: p65 translocation robust z-score: higher = more nuclear NF-kappaB p65 after LPS than the plate median; nuclear/cytoplasmic p65 ratio: higher = more nuclear NF-kappaB p65
- Rule for the call: 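Active if robust z is above 3.3 (negative regulators) or below -1.56, the Tlr4 control median (positive regulators); activity score 50 or more; control wells not called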
- Meaning of the calls: active = hit (p65 shift raised or lowered); inactive = no clear change
The whole screen tested about 17,000 reagents; this is an unselected part. 762 of all reagents (4.5%) were called active. 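Active calls include both raised and lowered p65 entry, mostly lowered; wells with fewer than 50 cells lack a z-score.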 The raw values are shown without normalisation.

| target gene | p65 translocation robust z-score | nuclear/cytoplasmic p65 ratio, rep 1 | nuclear/cytoplasmic p65 ratio, rep 2 | low cell count flag | Outcome |
| --- | --- | --- | --- | --- | --- |
| Gnas (GeneID 14683) | 0.6 | 1.55 | 1.71 | enough cells to score | inactive |
| Fubp1 (GeneID 51886) | -0.2 | 1.68 | 1.33 | enough cells to score | inactive |
| Klhl22 (GeneID 224023) | -1.07 | 1.39 | 1.3 | enough cells to score | inactive |
| Spatc1l (GeneID 76573) | 0.16 | 1.45 | 1.4 | enough cells to score | inactive |
| Cd48 (GeneID 12506) | 1.43 | 1.73 | 1.49 | enough cells to score | inactive |
| Rtbdn (GeneID 234542) | 0.75 | 1.68 | 1.98 | enough cells to score | inactive |
| Fgf13 (GeneID 14168) | -0.1 | 1.36 | 1.41 | enough cells to score | inactive |
| Tktl1 (GeneID 83553) | 0.08 | 1.44 | 1.62 | enough cells to score | inactive |
| Sdcbp (GeneID 53378) | 0.96 | 1.61 | 1.27 | enough cells to score | inactive |
| Fam185a (GeneID 330050) | -0.85 | 1.47 | 1.56 | enough cells to score | inactive |
| Ccdc25 (GeneID 67179) | – | 1.37 | 1.35 | fewer than 50 cells per well; well left out of scoring | inactive |
| Or6c201 (GeneID 258862) | – | 1.43 | 1.29 | fewer than 50 cells per well; well left out of scoring | inactive |
| Loxl2 (GeneID 94352) | 2.37 | 2.04 | 1.93 | enough cells to score | inactive |
| Krtap5-2 (GeneID 71623) | – | 1.19 | 1.4 | fewer than 50 cells per well; well left out of scoring | inactive |
| Gpr179 (GeneID 217143) | – | 1.17 | 1.55 | fewer than 50 cells per well; well left out of scoring | inactive |
| Slc1a4 (GeneID 55963) | -0.54 | 1.38 | 1.16 | enough cells to score | inactive |
| Gramd2b (GeneID 107022) | -0.8 | 1.4 | 1.35 | enough cells to score | inactive |
| Tango2 (GeneID 27883) | 0.59 | 1.68 | 1.61 | enough cells to score | inactive |
| Tcim (GeneID 69068) | – | 1.45 | 1.3 | fewer than 50 cells per well; well left out of scoring | inactive |
| Zfp61 (GeneID 22719) | -0.24 | 1.4 | 1.21 | enough cells to score | inactive |
| Apol10b (GeneID 328561) | – | 1.21 | 1.19 | fewer than 50 cells per well; well left out of scoring | inactive |
| Kcnk3 (GeneID 16527) | 1.12 | 1.64 | 1.51 | enough cells to score | inactive |
| Zcchc14 (GeneID 142682) | – | 1.34 | 1.52 | fewer than 50 cells per well; well left out of scoring | inactive |
| Hoxd10 (GeneID 15430) | 0.31 | 1.5 | 1.39 | enough cells to score | inactive |
